For 1 substance, binding results are on record in article doi:10.1101/2023.09.03.556084.

Chains of the proteins cited; added tags and fusions are not shown. Lines headed by an entry give the natural chain unless they say otherwise; changes in a name come on top.
UniProt P26039: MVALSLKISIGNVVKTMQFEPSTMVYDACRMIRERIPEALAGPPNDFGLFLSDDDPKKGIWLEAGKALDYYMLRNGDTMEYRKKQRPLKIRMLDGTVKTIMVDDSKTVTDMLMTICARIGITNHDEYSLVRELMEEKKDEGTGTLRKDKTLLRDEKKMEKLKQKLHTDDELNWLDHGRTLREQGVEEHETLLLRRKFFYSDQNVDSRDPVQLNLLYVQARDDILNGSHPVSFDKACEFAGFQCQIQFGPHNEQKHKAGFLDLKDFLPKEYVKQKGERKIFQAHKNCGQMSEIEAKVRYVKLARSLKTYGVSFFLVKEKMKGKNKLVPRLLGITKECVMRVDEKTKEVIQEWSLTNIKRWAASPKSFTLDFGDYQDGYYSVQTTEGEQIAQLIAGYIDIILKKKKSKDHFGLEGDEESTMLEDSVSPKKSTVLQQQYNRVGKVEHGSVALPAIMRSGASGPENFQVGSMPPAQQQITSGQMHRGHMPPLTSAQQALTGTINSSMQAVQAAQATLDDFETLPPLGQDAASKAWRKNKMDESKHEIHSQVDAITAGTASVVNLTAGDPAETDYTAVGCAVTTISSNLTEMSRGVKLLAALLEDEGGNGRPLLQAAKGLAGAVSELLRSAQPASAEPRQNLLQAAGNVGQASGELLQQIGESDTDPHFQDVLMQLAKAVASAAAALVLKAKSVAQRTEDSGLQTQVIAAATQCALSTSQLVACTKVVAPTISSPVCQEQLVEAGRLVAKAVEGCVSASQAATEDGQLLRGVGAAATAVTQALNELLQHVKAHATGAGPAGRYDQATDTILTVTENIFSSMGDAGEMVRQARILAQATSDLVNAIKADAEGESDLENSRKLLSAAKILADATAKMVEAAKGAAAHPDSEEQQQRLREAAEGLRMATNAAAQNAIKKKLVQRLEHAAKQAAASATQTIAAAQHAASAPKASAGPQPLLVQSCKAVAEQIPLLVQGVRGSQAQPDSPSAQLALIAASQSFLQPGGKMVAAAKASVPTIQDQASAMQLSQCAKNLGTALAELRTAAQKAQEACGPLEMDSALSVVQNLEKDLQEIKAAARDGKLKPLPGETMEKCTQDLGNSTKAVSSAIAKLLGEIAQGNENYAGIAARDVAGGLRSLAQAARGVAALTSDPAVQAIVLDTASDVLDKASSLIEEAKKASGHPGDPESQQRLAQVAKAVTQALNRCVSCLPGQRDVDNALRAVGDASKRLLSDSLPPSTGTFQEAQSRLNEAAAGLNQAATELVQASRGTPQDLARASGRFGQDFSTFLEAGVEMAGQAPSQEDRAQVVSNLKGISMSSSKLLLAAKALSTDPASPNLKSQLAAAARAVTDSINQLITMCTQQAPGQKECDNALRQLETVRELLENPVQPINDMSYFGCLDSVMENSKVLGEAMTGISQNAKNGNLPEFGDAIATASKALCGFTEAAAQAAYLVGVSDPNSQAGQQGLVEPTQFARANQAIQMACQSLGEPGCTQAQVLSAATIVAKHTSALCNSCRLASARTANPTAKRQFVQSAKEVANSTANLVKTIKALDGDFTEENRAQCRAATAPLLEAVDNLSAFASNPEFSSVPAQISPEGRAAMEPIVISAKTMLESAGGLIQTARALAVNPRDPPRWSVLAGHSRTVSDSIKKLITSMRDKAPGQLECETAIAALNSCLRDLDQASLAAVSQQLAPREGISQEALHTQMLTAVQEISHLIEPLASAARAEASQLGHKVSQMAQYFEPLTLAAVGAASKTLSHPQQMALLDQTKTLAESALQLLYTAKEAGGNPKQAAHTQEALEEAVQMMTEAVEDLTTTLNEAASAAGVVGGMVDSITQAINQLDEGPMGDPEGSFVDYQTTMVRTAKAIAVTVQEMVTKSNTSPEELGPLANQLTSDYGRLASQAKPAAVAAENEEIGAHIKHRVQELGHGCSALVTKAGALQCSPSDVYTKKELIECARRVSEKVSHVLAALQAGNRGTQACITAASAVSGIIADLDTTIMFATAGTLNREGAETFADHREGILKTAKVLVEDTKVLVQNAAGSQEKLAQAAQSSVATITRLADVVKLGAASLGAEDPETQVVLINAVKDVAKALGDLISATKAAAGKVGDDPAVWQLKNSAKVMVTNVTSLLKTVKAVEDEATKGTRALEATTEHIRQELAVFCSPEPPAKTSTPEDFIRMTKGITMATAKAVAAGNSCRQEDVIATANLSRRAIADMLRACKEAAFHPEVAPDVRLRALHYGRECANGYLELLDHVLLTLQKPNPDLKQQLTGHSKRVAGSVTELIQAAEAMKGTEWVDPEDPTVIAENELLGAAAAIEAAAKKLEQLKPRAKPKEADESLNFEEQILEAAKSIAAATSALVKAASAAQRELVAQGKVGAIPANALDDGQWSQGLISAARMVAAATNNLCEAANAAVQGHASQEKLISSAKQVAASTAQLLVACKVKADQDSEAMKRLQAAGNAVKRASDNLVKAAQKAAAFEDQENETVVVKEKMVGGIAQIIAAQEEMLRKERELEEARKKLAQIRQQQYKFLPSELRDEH

Experiment in all cases: co-IP
Assay [1] concerns the target GFP-tagged talin 1 R2 domain, wild type (mouse) (UniProt P26039).
Assay [2] deals with GFP-tagged talin 1 R1 domain, wild type (mouse) (UniProt P26039).
In assay [3] the target is GFP-tagged talin 1 R1R2 domain, wild type (mouse) (UniProt P26039).

These are yes or no findings as the source states them, for the method shown. Binding seen in cells or lysates may run through a third protein. Binding can be weak; no strength is given.

For “Flag-tagged ARPC5L (from UniProt Q9BPX5 1-153)”, the binding result in assay [1] is “binds”; in assay [2] it was “binds weakly”; in assay [3], “binds weakly”.
